The results in this text go back to ChEMBL document CHEMBL1156784, “The permeation of amphoteric drugs through artificial membranes--an in combo absorption model based on paracellular and transmembrane permeability” (J Med Chem, 2010).

The nature of this data set: Permeability at pH 6.5 by PAMPA method. In general terms: In PAMPA a lipid-coated filter parts donor from acceptor wells.

By Papp is commonly meant a coefficient for how fast a substance crosses the barrier. Compound `CCn1cc(C(=O)O)c(=O)c2cc(F)c(N3CCN(C)CC3)cc21` [PEFLOXACIN] had a Papp of 23 ×10⁻⁶ cm/s.
